The test has as its system RTT spheroids. The test is described as follows: FLIPR spontaneous calcium oscillation assay of iPSC-derived cortical brain spheroids (SMART library screen). It is filed as cell-based, human. The following applies: 298-compound SMART library on WT and RTT matured spheroids. From the text:
In one embodiment, the present disclosure provides human induced pluripotent stem cells iPScs that are subsequently differentiated into human cortical neurons comprising neurons and astrocytes in approximately a 50:50 ratio. The ratio can be adjusted on a case by case basis depending on the particular disease of interest from 1 to 99% either neurons or astrocytes. The 3D spheroids are comprised of approximately 50:50 neurons to astrocytes ratio +1-10%. The methods of differentiating and forming 3 dimensional spheroids and functional testing with FLIPR optical techniques is described in copending patent application No. 62/532667. […]
The oscillations being measured are from calcium flux moving into and out of the cells at ambient conditions. […] When analyzing the data, it is important to understand that multiple factors contribute to the signal being recorded by the FLIPR software. Therefore, in the present disclosure 7 parameters are recorded to determine if the data generated from the spheroid is meaningful. The parameters measured are, e.g., peak count, peak width, average peak spacing, peak spacing standard deviation, peak decay time, peak rise time, and/or peak amplitude.
In the present disclosure, the SMART library that contained 298 compounds was used on both WT and RTT matured spheroids over several weeks and the FLIPR data collected and analyzed for potential therapeutic efficacy. […]

SMILES strings stand for the structures.

For the compound `COc1cc2c(cc1OC)C(=O)C(CC1CCN(Cc3ccccc3)CC1)C2` (stereo not shown) [Donepezil], the “outcome of the SMART library screen (multivariant analysis)” value is “therapeutics of interest”.
